The effect of the compound repeats well; differences between the knockouts mostly do not. Where a SMILES comes first, the peptide text is derived from it. The star is where a group is joined. Cbz = O=C(OCc1ccccc1)*
Test system: BT-20
Experiment: relative cell number vs DMSO control (72 h) (% of DMSO); higher = less growth inhibition (more cells)
Experimental: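 QMAP-Seq: a pool of 5 breast cancer cell lines (ZR-75-1, SKBR3, HCC-38, MDA-MB-231, BT-20), each carrying 12 doxycycline-inducible Cas9 sgRNA perturbations (11 knockouts plus non-targeting sgNT), was treated with compounds for 72 h at four 10-fold doses (10 nM-10 uM or 1 nM-1 uM range). Barcodes were amplified and sequenced, and cell number was interpolated from 293T spike-in standard curves. The result is expressed as % of the median of DMSO wells. Two biological replicates.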

CC(C)C[C@@H](C=O)NC(=O)[C@H](CC(C)C)NC(=O)[C@H](CC(C)C)NC(=O)OCc1ccccc1 [MG132] (Cbz-Leu-Leu-Leu-aldehyde)
Conditions	relative cell number
sgRNA knockout: sgATF3, 10 nM	114
sgRNA knockout: sgATF3, 100 nM	109
sgRNA knockout: sgATF3, 1000 nM	26.5
sgRNA knockout: sgATF3, 10000 nM	15.4
sgRNA knockout: sgATF4, 10 nM	91.2
sgRNA knockout: sgATF4, 100 nM	101.4
sgRNA knockout: sgATF4, 1000 nM	31.3
sgRNA knockout: sgATF4, 10000 nM	18.4
sgRNA knockout: sgATF6, 10 nM	99.8
sgRNA knockout: sgATF6, 100 nM	99.9
sgRNA knockout: sgATF6, 1000 nM	27.6
sgRNA knockout: sgATF6, 10000 nM	17.4
sgRNA knockout: sgATG7, 10 nM	100
sgRNA knockout: sgATG7, 100 nM	96.1
sgRNA knockout: sgATG7, 1000 nM	31.9
sgRNA knockout: sgATG7, 10000 nM	18.5
sgRNA knockout: sgERN1, 10 nM	97
sgRNA knockout: sgERN1, 100 nM	92.6
sgRNA knockout: sgERN1, 1000 nM	31.2
sgRNA knockout: sgERN1, 10000 nM	19.36
sgRNA knockout: sgHSF1, 10 nM	85.8
sgRNA knockout: sgHSF1, 100 nM	99.5
sgRNA knockout: sgHSF1, 1000 nM	28.6
sgRNA knockout: sgHSF1, 10000 nM	21.2
sgRNA knockout: sgHSF2, 10 nM	94.5
sgRNA knockout: sgHSF2, 100 nM	100
sgRNA knockout: sgHSF2, 1000 nM	28.1
sgRNA knockout: sgHSF2, 10000 nM	20.1
sgRNA knockout: sgKEAP1, 10 nM	91.7
sgRNA knockout: sgKEAP1, 100 nM	98
sgRNA knockout: sgKEAP1, 1000 nM	33.206
sgRNA knockout: sgKEAP1, 10000 nM	17.2
sgRNA knockout: sgNFE2L2, 10 nM	108
sgRNA knockout: sgNFE2L2, 100 nM	91.1
sgRNA knockout: sgNFE2L2, 1000 nM	24.6
sgRNA knockout: sgNFE2L2, 10000 nM	21.36
sgRNA knockout: sgSLC35F2, 10 nM	103
sgRNA knockout: sgSLC35F2, 100 nM	110
sgRNA knockout: sgSLC35F2, 1000 nM	37.2
sgRNA knockout: sgSLC35F2, 10000 nM	18.8
sgRNA knockout: sgXBP1, 10 nM	110
sgRNA knockout: sgXBP1, 100 nM	95
sgRNA knockout: sgXBP1, 1000 nM	33.5
sgRNA knockout: sgXBP1, 10000 nM	16.9

CC(C)(C)c1nc(-c2cccc(NS(=O)(=O)c3c(F)cccc3F)c2F)c(-c2ccnc(N)n2)s1 [Dabrafenib]
Conditions	relative cell number
sgRNA knockout: sgATF3, 10 nM	137
sgRNA knockout: sgATF3, 100 nM	126
sgRNA knockout: sgATF3, 1000 nM	114
sgRNA knockout: sgATF3, 10000 nM	119
sgRNA knockout: sgATF4, 10 nM	152
sgRNA knockout: sgATF4, 100 nM	126
sgRNA knockout: sgATF4, 1000 nM	107
sgRNA knockout: sgATF4, 10000 nM	114
sgRNA knockout: sgATF6, 10 nM	134
sgRNA knockout: sgATF6, 100 nM	92.5
sgRNA knockout: sgATF6, 1000 nM	120
sgRNA knockout: sgATF6, 10000 nM	128
sgRNA knockout: sgATG7, 10 nM	142
sgRNA knockout: sgATG7, 100 nM	136
sgRNA knockout: sgATG7, 1000 nM	96.9
sgRNA knockout: sgATG7, 10000 nM	117
sgRNA knockout: sgERN1, 10 nM	141
sgRNA knockout: sgERN1, 100 nM	122
sgRNA knockout: sgERN1, 1000 nM	93.5
sgRNA knockout: sgERN1, 10000 nM	118
sgRNA knockout: sgHSF1, 10 nM	150
sgRNA knockout: sgHSF1, 100 nM	119
sgRNA knockout: sgHSF1, 1000 nM	108
sgRNA knockout: sgHSF1, 10000 nM	111
sgRNA knockout: sgHSF2, 10 nM	144
sgRNA knockout: sgHSF2, 100 nM	116
sgRNA knockout: sgHSF2, 1000 nM	102
sgRNA knockout: sgHSF2, 10000 nM	109
sgRNA knockout: sgKEAP1, 10 nM	141
sgRNA knockout: sgKEAP1, 100 nM	112
sgRNA knockout: sgKEAP1, 1000 nM	97
sgRNA knockout: sgKEAP1, 10000 nM	114
sgRNA knockout: sgNFE2L2, 10 nM	146
sgRNA knockout: sgNFE2L2, 100 nM	134
sgRNA knockout: sgNFE2L2, 1000 nM	100
sgRNA knockout: sgNFE2L2, 10000 nM	104
sgRNA knockout: sgSLC35F2, 10 nM	136
sgRNA knockout: sgSLC35F2, 100 nM	117
sgRNA knockout: sgSLC35F2, 1000 nM	104
sgRNA knockout: sgSLC35F2, 10000 nM	107
sgRNA knockout: sgXBP1, 10 nM	142
sgRNA knockout: sgXBP1, 100 nM	123
sgRNA knockout: sgXBP1, 1000 nM	112
sgRNA knockout: sgXBP1, 10000 nM	116

CO[C@H]1C[C@@H]2CC[C@@H](C)[C@@](O)(O2)C(=O)C(=O)N2CCCC[C@H]2C(=O)O[C@H]([C@H](C)C[C@@H]2CC[C@@H](OCCO)[C@H](OC)C2)CC(=O)[C@H](C)/C=C(\C)[C@@H](O)[C@@H](OC)C(=O)[C@H](C)C[C@H](C)/C=C/C=C/C=C/1C [Everolimus]
Conditions	relative cell number
sgRNA knockout: sgATF3, 1 nM	59.3
sgRNA knockout: sgATF3, 10 nM	50.1
sgRNA knockout: sgATF3, 100 nM	56.8
sgRNA knockout: sgATF3, 1000 nM	72
sgRNA knockout: sgATF4, 1 nM	54.2
sgRNA knockout: sgATF4, 10 nM	60.8
sgRNA knockout: sgATF4, 100 nM	60.3
sgRNA knockout: sgATF4, 1000 nM	64.8
sgRNA knockout: sgATF6, 1 nM	57.3
sgRNA knockout: sgATF6, 10 nM	49.5
sgRNA knockout: sgATF6, 100 nM	59.6
sgRNA knockout: sgATF6, 1000 nM	75.4
sgRNA knockout: sgATG7, 1 nM	57.3
sgRNA knockout: sgATG7, 10 nM	56.5
sgRNA knockout: sgATG7, 100 nM	57.7
sgRNA knockout: sgATG7, 1000 nM	64.7
sgRNA knockout: sgERN1, 1 nM	49.2
sgRNA knockout: sgERN1, 10 nM	52.4
sgRNA knockout: sgERN1, 100 nM	56.8
sgRNA knockout: sgERN1, 1000 nM	63.1
sgRNA knockout: sgHSF1, 1 nM	49.4
sgRNA knockout: sgHSF1, 10 nM	45.7
sgRNA knockout: sgHSF1, 100 nM	56.2
sgRNA knockout: sgHSF1, 1000 nM	59.6
sgRNA knockout: sgHSF2, 1 nM	66.8
sgRNA knockout: sgHSF2, 10 nM	48.3
sgRNA knockout: sgHSF2, 100 nM	51.1
sgRNA knockout: sgHSF2, 1000 nM	66.2
sgRNA knockout: sgKEAP1, 1 nM	61.2
sgRNA knockout: sgKEAP1, 10 nM	58.4
sgRNA knockout: sgKEAP1, 100 nM	64.5
sgRNA knockout: sgKEAP1, 1000 nM	66.6
sgRNA knockout: sgNFE2L2, 1 nM	58.2
sgRNA knockout: sgNFE2L2, 10 nM	50.6
sgRNA knockout: sgNFE2L2, 100 nM	54.8
sgRNA knockout: sgNFE2L2, 1000 nM	64.1
sgRNA knockout: sgSLC35F2, 1 nM	58.3
sgRNA knockout: sgSLC35F2, 10 nM	54.6
sgRNA knockout: sgSLC35F2, 100 nM	59.03
sgRNA knockout: sgSLC35F2, 1000 nM	64
sgRNA knockout: sgXBP1, 1 nM	57
sgRNA knockout: sgXBP1, 10 nM	54.1
sgRNA knockout: sgXBP1, 100 nM	59.6
sgRNA knockout: sgXBP1, 1000 nM	62.9

Nc1nc(OCc2cc(Br)cs2)c2[nH]cnc2n1 [Lomeguatrib]
Conditions	relative cell number
sgRNA knockout: sgATF3, 10 nM	103
sgRNA knockout: sgATF3, 100 nM	108
sgRNA knockout: sgATF3, 1000 nM	88.2
sgRNA knockout: sgATF3, 10000 nM	78.7
sgRNA knockout: sgATF4, 10 nM	102
sgRNA knockout: sgATF4, 100 nM	125
sgRNA knockout: sgATF4, 1000 nM	92
sgRNA knockout: sgATF4, 10000 nM	84.7
sgRNA knockout: sgATF6, 10 nM	106.3
sgRNA knockout: sgATF6, 100 nM	109
sgRNA knockout: sgATF6, 1000 nM	97.5
sgRNA knockout: sgATF6, 10000 nM	84.4
sgRNA knockout: sgATG7, 10 nM	103
sgRNA knockout: sgATG7, 100 nM	115
sgRNA knockout: sgATG7, 1000 nM	97.1
sgRNA knockout: sgATG7, 10000 nM	85.5
sgRNA knockout: sgERN1, 10 nM	110
sgRNA knockout: sgERN1, 100 nM	104
sgRNA knockout: sgERN1, 1000 nM	114
sgRNA knockout: sgERN1, 10000 nM	93
sgRNA knockout: sgHSF1, 10 nM	96.2
sgRNA knockout: sgHSF1, 100 nM	109
sgRNA knockout: sgHSF1, 1000 nM	94.2
sgRNA knockout: sgHSF1, 10000 nM	91.4
sgRNA knockout: sgHSF2, 10 nM	97.1
sgRNA knockout: sgHSF2, 100 nM	113
sgRNA knockout: sgHSF2, 1000 nM	85.8
sgRNA knockout: sgHSF2, 10000 nM	103
sgRNA knockout: sgKEAP1, 10 nM	94.6
sgRNA knockout: sgKEAP1, 100 nM	88.1
sgRNA knockout: sgKEAP1, 1000 nM	93.3
sgRNA knockout: sgKEAP1, 10000 nM	75.2
sgRNA knockout: sgNFE2L2, 10 nM	101
sgRNA knockout: sgNFE2L2, 100 nM	121
sgRNA knockout: sgNFE2L2, 1000 nM	108
sgRNA knockout: sgNFE2L2, 10000 nM	90.2
sgRNA knockout: sgSLC35F2, 10 nM	101
sgRNA knockout: sgSLC35F2, 100 nM	117
sgRNA knockout: sgSLC35F2, 1000 nM	101
sgRNA knockout: sgSLC35F2, 10000 nM	91
sgRNA knockout: sgXBP1, 10 nM	103
sgRNA knockout: sgXBP1, 100 nM	110
sgRNA knockout: sgXBP1, 1000 nM	96.6
sgRNA knockout: sgXBP1, 10000 nM	81.32
